In the supplement of paper PMC12889115:
The list shows a part of the results. Values are raw readings; no control value is given beside them.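 First-pass screen: polymyxin B was added at a level that permeabilizes the Salmonella outer membrane while sparing the inner membrane. DMSO wells, with and without polymyxin B, defined maximum growth. Because plates differed from one another, each plate's data were ranked separately and the compounds with the lowest OD600 were carried forward as hits.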

System: Salmonella enterica serovar Typhimurium SL1344
Assay: bacterial growth OD600 after 18 h with compound and polymyxin B; higher = more bacterial growth (less inhibition)
Conditions: 50 µM, Mueller-Hinton broth

Compound | bacterial growth OD600 (polymyxin B 0.75 µg/mL) | bacterial growth OD600 (polymyxin B 1 µg/mL)
CC(C)CCn1cc(C(=O)NC2CCCC2)c(=O)c(C(=O)N(C)CCc2ccccn2)c1 | 0.805 | –
COCCCNc1nc2nonc2nc1N(C)C1CC(C)(C)NC(C)(C)C1 | – | 0.914
COc1cc(-c2nc(CN3C[C@@H]4C[C@H](C3)c3cccc(=O)n3C4)c(C)o2)cc2c1OCO2 | – | 0.792
O=C(c1cccc(Cl)c1)C1CCCN(C2CCCC2)C1 (configuration not stated) | 0.857 | –
O=C(c1cccc2ccccc12)C1CCCN(Cc2cc[nH]n2)C1 (configuration not stated) | – | 0.776
Cc1ccc(C(=O)Nc2ccc(N3CCC(NC(C)Cc4cccnc4)CC3)cc2)c(C)c1 (configuration not stated) | 0.818 | –
Cc1ccc(C(C)Nc2ccc(-c3nc(C4CC4)no3)cn2)cn1 (configuration not stated) | – | 1.05
COc1ccc(Cl)cc1C(=O)C1CCCN(Cc2cccc(C)n2)C1 (configuration not stated) | – | 0.61
COc1c(C)cc(C(=O)C2CCCN(Cc3cn(C)nc3C)C2)cc1C (configuration not stated) | – | 0.884
O=C(c1ccc(Cl)cc1)C1CCCN(Cc2cccc3c2OCO3)C1 (configuration not stated) | – | 0.329
COc1ccc(C(=O)C2CCCN(Cc3cccc(F)c3)C2)cc1OC (configuration not stated) | – | 0.817
O=C(NCc1ccc(F)c(F)c1)c1cn(C2CCCCC2)nn1 | – | 0.532
CC(Cc1cnccn1)NCc1c(C(=O)N2CCCCCCC2)nc2ccc(Cl)cn12 (configuration not stated) | 0.66 | –
COc1ccc(Cl)cc1C(=O)C1CCCN(Cc2cnc(SC)nc2)C1 (configuration not stated) | – | 0.056
COc1ccc(OC)c(CC(=O)N(C)C2CCCN(C3Cc4ccccc4C3)C2)c1 (configuration not stated) | – | 0.022
COc1cc(C)c(-c2nc(CN3C[C@@H]4C[C@H](C3)c3cccc(=O)n3C4)c(C)o2)cc1C | – | 0.902

Compound | bacterial growth OD600 (polymyxin B 0.75 µg/mL) | bacterial growth OD600 (polymyxin B 1 µg/mL)
O=C1O[C@@H]2CN(Cc3nccs3)C[C@@H]2N1CCc1ccccn1 | 0.878 | –
O=C(NCc1ccccc1OC(F)(F)F)c1cn(C2CCCCC2)nn1 | – | 0.839
Cc1cc(Cl)ccc1C(=O)C1CCCN(Cc2cccnc2)C1 (configuration not stated) | – | 0.786
O=C(c1cccs1)C1CCCN(Cc2nc(-c3ccccn3)no2)C1 (configuration not stated) | – | 0.953
O=C(c1cn(C2CCCCC2)nn1)N(Cc1ccccc1)CC1CCC1 | – | 0.024
CCCn1cc(CN2CCCC(C(=O)c3ccc(Cl)cc3)C2)c(C)n1 (configuration not stated) | 0.559 | –
CC(Cc1cccnc1)NC1CCN(c2ccc(NC(=O)CCc3ccccc3)cc2)CC1 (configuration not stated) | 0.72 | –
O=C1O[C@@H]2CN(C3CCSCC3)C[C@@H]2N1CCc1ccccn1 | 0.824 | –
CO[C@H]1[C@H](NC(=O)c2ccncc2)c2ccccc2C12CCN(C(=O)C1C(C)(C)C1(C)C)CC2 | 0.703 | –
COc1ccc(C(=O)C2CCCN(Cc3ccccc3C)C2)c(OC)c1 (configuration not stated) | – | 0.957
CC(Cc1cncs1)NC1CCN(c2cccc(NS(=O)(=O)c3ccc(F)cc3)c2)CC1 (configuration not stated) | 0.863 | –
CCC(=O)N[C@@H]1c2ccccc2C2(CCN(C(=O)C3C(C)(C)C3(C)C)CC2)[C@H]1OCc1cccnc1 | 0.01 | –
COCCN(C(=O)c1cn(Cc2ccccn2)cc(C(=O)NC2CCCCCCC2)c1=O)C(C)C | 0.862 | –
Cc1ccsc1C(=O)C1CCCN(Cc2ccc(C#CC(C)(C)O)s2)C1 (configuration not stated) | – | 0.733
Cc1cc(Cl)ccc1C(=O)C1CCCN(C2CSCCSC2)C1 (configuration not stated) | – | 0.657
COc1ccc2cc(C(=O)C3CCCN(CC4CC4)C3)ccc2c1 (configuration not stated) | – | 0.753

Quoted at random: two records from the list
Compound | bacterial growth OD600 (polymyxin B 0.75 µg/mL) | bacterial growth OD600 (polymyxin B 1 µg/mL)
Cc1cc(Cl)ccc1C(=O)C1CCCN(Cc2cccnc2)C1 (configuration not stated) | – | 0.786
O=C(c1cn(C2CCCCC2)nn1)N(Cc1ccccc1)CC1CCC1 | – | 0.024
